Results published in patent publication US12369577B2, “Monoterpenoid/phenylpropanoid-containing compounds and methods of their making and use as baits” (KITTRICH CORPORATION, priority 2016, dated 2025).
Some results were stated once for a whole list of compounds, not compound by compound. The name of at least one read-out is uncertain.

system: house flies (Musca domestica); experiment: House fly feeding assay, solid food, non-choice; assay type: in vivo; details: 5% weight/weight food; 5 days; non-choice (FIG. 4)
Excerpt: Approximately 20-30 adult house flies (Musca domestica) were introduced into aquaria (2.5 gallon) with a French square filled with de-ionized water. Cotton dental wicks were used to draw water up and present it to flies at the top of the French square. Different concentrations of compounds were introduced into 1:1 mixtures of evaporated milk powder and sucrose. 2 grams of food was provided to flies with compound incorporated at various weights by weight food. If the material was solid, a mortar and pestle was used to homogenize the crushed evaporated milk powder, sucrose, and compound. If the material was a liquid, it was dissolved in acetone and aliquotted into the food slowly until the desired concentration of compound by weight food was achieved. If acetone was used as the carrier throughout the experiment, the food was carefully stirred repeatedly to ensure evaporation so that no more acetone was present in the food. The concentration used to assess mortality was 5% weight compound by weight food. Total mortality was assessed at 5 days after introducing house flies into individual mason jars with food treated with different compounds. Further experiments were conducted to assess the success of baits with Z-9-tricosene (Muscalure®), a potent house fly sex pheromone commonly added to fly toxic baits and traps.
Data is presented as average percentage mortality with the standard error of the mean (SEM). This number was compared to the total number of flies introduced to each aquaria for each replicate, and a percentage mortality was calculated. A minimum of three replicates were performed for each compound.

Q: For `CC(C)=CCC/C(C)=C/COC(=O)COc1cc(C)ccc1C(C)C` [geranyl thymyloxyacetate], which percentage mortality is on record?
A: The percentage mortality was “greater than 50%”.

Q: For `O=C(CCCCC(=O)OC/C=C/c1ccccc1)OC/C=C/c1ccccc1` [dicinnamyl adipate], which percentage mortality is on record?
A: The percentage mortality was “above 40%”.

Q: Which percentage mortality does the source give for `O=C(/C=C/c1ccccc1)CC1C(OC(=O)/C=C/c2ccccc2)C(OC(=O)/C=C/c2ccccc2)C(OC(=O)/C=C/c2ccccc2)C(OC(=O)/C=C/c2ccccc2)C1OC(=O)/C=C/c1ccccc1` (stereo not shown) [hexacinnamoyl inositol, hexacinnamoylinositol] here?
A: Its percentage mortality is “above 40%”.

Q: `CCCCCCCCCCCCCC(=O)OCC=Cc1ccccc1` [cinnamyl myristate] was tested. Which percentage mortality did it give?
A: The percentage mortality was “above 40%”.

Q: How did the percentage mortality turn out when `C=CCc1ccc(OCC(=O)OC)c(OC)c1` [methyl eugenyloxyacetate, Methyl Eugenyloxyacetate] was run?
A: Its percentage mortality is “greater than 50%”.

Q: For `Cc1ccc(C(C)C)c(OC(=O)CCC(=O)O)c1` [thymyl hydrogen succinate], which percentage mortality is on record?
A: Its percentage mortality is “greater than 50%”.

Q: With `Cc1ccc(C(C)C)c(OC(=O)/C=C/c2ccccc2)c1` [thymyl cinnamate] as the compound, how does the percentage mortality read?
A: The percentage mortality was “greater than 50%”.

Q: How did the percentage mortality turn out when `C=CCc1ccc(OCC(=O)O)c(OC)c1` [eugenyloxyacetic acid] was run?
A: Its percentage mortality is “greater than 50%”.

Q: With `CC(C)=CCCC(C)CC(=O)OCCOC(=O)CC(C)CCC=C(C)C` (stereo not shown) [ethylene dicitronellate] as the compound, how does the percentage mortality read?
A: Its percentage mortality is “greater than 50%”.

same assay, conditions: 5% weight/weight food; 5 days; non-choice (FIG. 4); listed as Thymyl hydrogen succinate

Q: With `Cc1ccc(C(C)C)c(OC(=O)CCC(=O)O)c1` [thymyl hydrogen succinate] as the compound, how does the percentage mortality read?
A: The percentage mortality was “above 40%”.
